The values below come from PubChem BioAssay AID493014 (National Center for Advancing Translational Sciences (NCATS), 2011).

SMILES strings stand for the structures. This is one part of the list. These are further read-outs of the screen, such as a control signal, another cell line or another target. No call is given for them. The list favours compounds with an active or inconclusive main result. Potencies come from curve fits of mixed quality, noted in brackets.

This test can be described thus: qHTS Assay to Find Inhibitors of Chronic Active B-Cell Receptor Signaling. The settings on record: ABC-DLBCL IkBa-CBG/CBR reporter, luminescence ratio (green luciferase fused to IkBa over red control in TMD8 lymphoma cells), 4 h. The method in brief:
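Compounds up to 46 uM were incubated four hours with TMD8 cells whose green CBG68 luciferase is fused to IkappaBalpha; red CBR luminescence normalised the signal, and concentration-effect curves were fitted to fusion, red and ratio data.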
(Quantitative high-throughput screening tests each substance at several concentrations.)

The mark [1] stands for this setting: measured here: CBR red luminescence, cell number.
Setting [2] is: measured here: IkBa-CBG green luminescence.

One may read the AC50 as the concentration giving half of the maximal activity seen. `COc1ccc(OC)c(NC(=O)Cn2c(=O)oc3ccccc32)c1`: the AC50 under setting [1] was 5.62 µM [rising, single point]. With `COC(=O)C1=C(c2ccc(F)cc2OCc2ccccc2)C[C@@H]2CC[C@H]1N2C(=O)NCCCOC(C)C`, under setting [1], the concentration at half-maximal activity (AC50) is 20.6 µM [falling, single point].

Regarding `CC1CCCCN1Cc1c[nH]c2ccccc12` (stereo not given), the concentration at half-maximal activity (AC50) under setting [1] was 35.5 µM [falling, single point]. On to `CCCn1cc(CN2CCCC(C(=O)c3cccc(OC)c3)C2)c(C)n1` (stereo not given), for which the AC50 under setting [1] is 5.62 µM [falling, single point]. Still for that read-out and setting: the same measure for `COc1cc(CNCCN2CCOCC2)ccc1OCc1ccc(Cl)cc1Cl`: 22.4 µM [falling, partial curve, poor fit]; for `C=CCN1C(=O)NC(=O)/C(=C/c2ccc(OCC(=O)Nc3ccc(C)cc3)cc2)C1=O`: 35.5 µM [rising, single point]; for `C=C1C(=O)O[C@@H]2C[C@@H](C)[C@H]3C=CC(=O)[C@]3(O)C[C@@H]12`: 35.5 µM [falling, single point]. For `C=CCn1c(O)c(C=Nc2ccc(N(CC)CC)cc2)c(=O)[nH]c1=O`, under setting [1], the concentration at half-maximal activity (AC50) was 6.51 µM [falling, single point].

In the case of `Cc1ccc2cc3cc(C(=O)N4CCCCC4C)oc3nc2c1` (stereo not given), under setting [1], the AC50 is 15.8 µM [falling, single point]. On to `Cc1ccc(C[n+]2c(-c3ccc(C)cc3)cc(-c3ccc(C)cc3)cc2-c2ccc(C)cc2)cc1`, for which the AC50 by setting is: under setting [1], 5.8 µM [falling, full curve]; under setting [2], 4.11 µM [rising, partial curve, poor fit]. `O=C1NC(=O)N(c2ccc3c(c2)OCO3)C(=O)/C1=C/c1cccs1`: the AC50 under setting [1] is 12.6 µM [rising, partial curve]. `c1ccc(-c2[nH]c[n+](CC3CO3)c2-c2ccccc2)cc1` (stereo not given): the AC50 under setting [1] is 23.1 µM [falling, partial curve, poor fit]. Take `O=C1NC(=O)C(CCc2ccccn2)(Cc2ccc3c(c2)OCO3)C(=O)N1CCc1ccccc1` (stereo not given): the concentration at half-maximal activity (AC50) under setting [1] is 23.1 µM [falling, partial curve, poor fit]. For the molecule `CCN1CC2(COC(=O)c3ccccc3N)CCC(OC)C34C5CC6C(OC)CC(O)(C5C6OC)C(O)(C(OC)C23)C14` (stereo not given), under setting [1], the AC50 is 32.6 µM [rising, single point]. Turning to `COc1ccc(C2=NCc3nnc(C)n3-c3ccc(Cl)cc32)cc1Cl`, the concentration at half-maximal activity (AC50) was 25.9 µM [rising, partial curve] under setting [1] and 32.6 µM [falling, partial curve, poor fit] under setting [2].

As for `CNC(=O)O/N=C(\N)Cc1csc2ccc(Cl)cc12`, under setting [1], the half-maximal activity concentration (AC50) was 35.5 µM [rising, single point]. With `CC1=CC(=C2C(=O)NC(=S)NC2=O)C=C(C(F)(F)F)N1Cc1ccccc1`, under setting [1], the concentration at half-maximal activity (AC50) is 2.82 µM [rising, single point]. Take `Cc1cccc(NC(=O)c2cnc3sccn3c2=O)c1`: the concentration at half-maximal activity (AC50) under setting [1] is 0.708 µM [rising, full curve, poor fit]. For `Cn1cc(C(=O)OCC(=O)Nc2ccccc2Cl)c2ccccc21`, the concentration at half-maximal activity (AC50) under setting [1] is 3.26 µM [falling, partial curve].

Regarding `Cn1c(O)c(C=NCc2ccco2)c(=O)n(C)c1=O`, under setting [1], the AC50 is 4.11 µM [falling, full curve, poor fit]. In the case of `CC[C@]12CC[C@H](O)CC1=CCC1C2CC[C@]2(C)C(=O)CCC12` (stereo not given in full), the half-maximal activity concentration (AC50) is 10.3 µM [rising, partial curve] under setting [1] and 23.1 µM [falling, partial curve, poor fit] under setting [2]. Turning to `C/C(=N\NC(=O)c1ccccc1Cl)c1c(O)n(C2CCCCC2)c(=O)[nH]c1=O`, the half-maximal activity concentration (AC50) under setting [1] was 1.58 µM [falling, full curve].

For `CCOC(=O)c1c(C)[nH]c(C)c1C(=O)C(Cc1ccccc1)N(C)C` (stereo not given), the concentration at half-maximal activity (AC50) under setting [1] is 0.794 µM [rising, full curve, poor fit].

Take `c1ccc(CSc2ccc(-c3ccccn3)nn2)nc1`: under setting [1], the AC50 was 11.2 µM [falling, partial curve, poor fit].

In the case of `O=C(/C=C/c1ccc(Br)cc1)NC(=S)N1C[C@H]2C[C@H](C1)c1cccc(=O)n1C2`, the AC50 under setting [1] is 0.501 µM [falling, full curve, poor fit].

With `CCNC(=S)NCCC1=c2ccccc2=N/C1=C\c1c(O)n(C)c(=O)n(C)c1=O`, the AC50 under setting [1] is 20 µM [falling, single point]. For `Cc1noc(C)c1C(=O)NNc1cc(Cl)ccc1Cl`, the AC50 under setting [1] is 4.47 µM [rising, partial curve, poor fit].

Turning to `O=C(CN1CC(c2ccccc2)CC1=O)Nc1ccccc1` (stereo not given), the AC50 under setting [1] is 0.146 µM [rising, full curve, poor fit]. In the case of `CCCCOC(=O)n1c(=O)oc2ccccc21`, the concentration at half-maximal activity (AC50) under setting [1] was 3.26 µM [falling, partial curve]. With `COC(=O)[C@@H]1C[C@H]1[C@@H](NP(=O)(c1ccccc1)c1ccccc1)c1ccccc1`, the concentration at half-maximal activity (AC50) under setting [2] was 5.17 µM [falling, partial curve, poor fit]. `CC(Cc1ccccc1)N1Cc2ccccc2C1` (stereo not given): the half-maximal activity concentration (AC50) under setting [1] was 0.631 µM [rising, partial curve, poor fit].

`CC(C)c1ccc(C2NCc3ccccc3-n3cccc32)cc1` (stereo not given): the concentration at half-maximal activity (AC50) under setting [1] is 10 µM [rising, partial curve, poor fit]. Take `CC(=O)Nc1ccccc1C(=O)OCc1cccc(F)c1`: the half-maximal activity concentration (AC50) under setting [1] is 11.2 µM [rising, partial curve, poor fit]. Consider `CN1CCN(c2cc(N3CCCCCC3)c(F)cc2[N+](=O)[O-])CC1`, for which the AC50 under setting [1] was 0.146 µM [rising, full curve, poor fit]. As for `CC(C)(C)NC(=O)CN1CCCN(C(=O)COc2ccc(Cl)c3ccccc23)CC1`, under setting [1], the AC50 was 16.4 µM [falling, single point]. Regarding `CC(Cc1ccccc1)N1C(=O)c2ccccc2C1=O` (stereo not given), under setting [1], the concentration at half-maximal activity (AC50) was 22.4 µM [rising, partial curve, poor fit]. On to `COC(=O)C1=C(c2ccccc2OCc2ccccc2)C[C@@H]2CC[C@H]1N2C(=O)NCc1ccc([N+](=O)[O-])cc1`, for which the AC50 under setting [1] is 8.2 µM [falling, partial curve, poor fit]. With `CNC(=O)c1cccn(Cc2cccc(C(F)(F)F)c2)c1=O`, under setting [1], the AC50 is 17.8 µM [rising, single point]. Consider `CC1CN(c2ccc([N+](=O)[O-])c(N3CCCCC3)c2)CCN1` (stereo not given), for which, under setting [1], the AC50 was 35.5 µM [falling, single point].

Take `CCN(CC)c1ccc(CNCCc2ccccc2F)cc1`: the AC50 under setting [1] was 17.8 µM [falling, partial curve, poor fit]. `COc1ccc(-c2noc(=O)n2Cc2ccccc2F)cc1`: under setting [1], the AC50 was 11.2 µM [rising, partial curve, poor fit]. `CCOCCc1c(O)[nH]c(=S)[nH]c1=O`: the concentration at half-maximal activity (AC50) under setting [1] was 5.01 µM [falling, partial curve]. As for `c1cc2c(cc1[C@H]1OCC3C1CO[C@@H]3c1ccc3c(c1)OCO3)OCO2` (stereo not given in full), under setting [1], the half-maximal activity concentration (AC50) was 0.116 µM [rising, full curve]. For the molecule `CCn1c(O)c(C=Nc2ccc(S(N)(=O)=O)cc2)c(=O)n(CC)c1=S`, under setting [1], the AC50 is 18.4 µM [falling, single point].

As to `Cc1ccc(NC(=O)CSc2nnc([C@@H](N)Cc3c[nH]c4ccccc34)o2)c(C)c1`, the AC50 under setting [1] was 11.2 µM [falling, partial curve]. `COCCCn1c(N)c(C(=O)NCc2ccco2)c2nc3ccccc3nc21`: the half-maximal activity concentration (AC50) under setting [1] is 7.08 µM [falling, partial curve, poor fit] and the AC50 under setting [2] is 1.41 µM [rising, full curve, poor fit]. As for `Cc1cc(C(=O)OCC(=O)Nc2ccccc2F)c(C)n1C1CC1`, the AC50 under setting [1] was 5.8 µM [falling, partial curve, poor fit]. As for `C[C@H]1CC[C@@H]2[C@@H](C)[C@H]3[C@H](C[C@H]4[C@@H]5CC=C6C[C@@H](O[C@@H]7O[C@H](CO)[C@H](O)[C@H](O[C@@H]8O[C@H](CO)[C@@H](O)[C@H](O)[C@H]8O)[C@H]7O[C@@H]7O[C@@H](C)[C@H](O)[C@@H](O)[C@H]7O)CC[C@]6(C)[C@H]5CC[C@]34C)N2C1`, the AC50 under setting [1] is 23.1 µM [rising, single point]. `C#CCOc1ccc2c(c1)c(C(C)=O)c(C)n2Cc1ccccc1`: the AC50 runs as follows: under setting [1], 35.5 µM [falling, single point]; under setting [2], 35.5 µM [rising, partial curve, poor fit].

For `COc1cc(/C=C/c2nc3ccccc3c(=O)n2-c2ccccc2O)ccc1O`, the AC50 under setting [1] was 12.6 µM [falling, partial curve]. For `Oc1ccc(CC2CC3CCN2CC3)cc1O` (stereo not given), under setting [1], the concentration at half-maximal activity (AC50) is 7.08 µM [rising, partial curve, poor fit].

`C/C(=C\c1ccc(N(C)C)cc1)[N+](=O)[O-]`: the half-maximal activity concentration (AC50) under setting [1] was 35.5 µM [rising, single point] and the AC50 under setting [2] is 35.5 µM [falling, single point]. With `C[n+]1c2ccccc2nc2ccc(NCCO)cc21`, the AC50 under setting [1] is 35.5 µM [falling, single point]. As for `C=CCn1c(O)c(/C(C)=N/NC(=S)Nc2ccccc2)c(=O)[nH]c1=O`, the AC50 under setting [1] is 35.5 µM [falling, single point]. For the molecule `C=C1N2CCC(CC2)C1(O)c1ccc(C)cc1` (stereo not given), the half-maximal activity concentration (AC50) under setting [1] is 3.26 µM [falling, partial curve, poor fit]. On to `CC1(C)C(C(=O)NN2C(=O)c3ccccc3C2=O)C1(C)C`, for which the AC50 under setting [1] is 0.0517 µM [rising, full curve, poor fit]. On the same count and under the same terms, the same measure for `CCn1c(O)c(/C=N/NC(=O)c2ccccc2)c(=O)n(CC)c1=S`: 1.12 µM [falling, full curve]. For `C=C1C(=O)O[C@H]2[C@H]1[C@H](OC(=O)CC(=O)O[C@@H]1C[C@@H](C)[C@@H]3C=CC(=O)[C@@]3(C)[C@H]3OC(=O)C(=C)[C@H]13)C[C@@H](C)[C@H]1C=CC(=O)[C@]12C`, the concentration at half-maximal activity (AC50) reads like this: under setting [1], 4.47 µM [falling, partial curve]; under setting [2], 10 µM [rising, partial curve, poor fit].
